Data published in PMC12612871, “Novel 1,3-Diazepines as Nontoxic Corrosion Inhibitors” (ACS Omega, 2025).

Tests used:
[1] = SEM and EDS analysis of corrosion products; details: steel immersed 4 h in HCl solution, inhibitor 2.0 mmol L–1
Source text: Scanning electron microscopy (SEM) and energy dispersive Spec-troscopy (EDS) analysis were acquired using an FEI Quanta 3D FEG instrument.

[2] = Electrochemical polarization curve measurements
Protocol: The aqueous solutions were prepared from 5% (v/v) dimethyl sulfoxide in HCl 1 mol L^–1 in the absence and presence of inhibitors with inhibitor concentrations of 0.5, 1.5, and 2.0 mmol L^–1. The SAE 1020 steel was immersed in acid solutions for 30 min at 25 °C in open-circuit potential (OCP) conditions. Afterward, polarization curve (PC) analyses were performed, using an EmStat3+ potentiostat from PalmSens. A minimum of two runs were conducted for each experiment. An initial potential in the cathodic region (−150 mV vs OCP) was applied to measure the PC, with a sweep rate of 0.166 mV s^–1 toward more positive potentials until reaching +150 mV vs OCP. ,

N#CC(C(=O)c1ccccc1)=C1NCCCCN1 [compound 14, 2-(1,3-Diazepan-2-ylidene)-3-oxo-3-phenylpropanenitrile]
chloride on sample surface by EDS [1]: No chloride was detected
oxygen content of corrosion products by EDS [1]: 4.01 wt %
inhibitor type from polarization curves ([2]; SAE 1020 steel in 0.1 mol L–1 HCl solution): mixed-type inhibitor
OCP shift ([2]; SAE 1020 steel in 0.1 mol L–1 HCl solution, 0.5, 1.5, 2.0 mmol L–1 inhibitor): smaller than 85 mV

COC(=O)C(C#N)=C1NCCCCN1 [compound 12, Methyl 2-cyano-2-(1,3-diazepan-2-ylidene)-acetate]
chloride on sample surface by EDS [1]: Chloride traces were also detected
oxygen content of corrosion products by EDS [1]: 8.33 wt %
